PubChem BioAssay AID504791, Drosophila RNAi Screening Center | 2011
The deposit covers about 23,000 reagents; this is a random part of those that have a named target and a result. In the full data, 199 (0.86%) are marked active. 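Plate-scaled ratios behind the calls are not deposited; printed light signals are raw; many rows marked increased or decreased are still called inactive.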 The numbers tell different reagents against one gene apart. Names joined by + are all predicted targets of the reagent. The record does not give: the direction of the score.

Screen: 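Factors in Argonaute-based small RNA production and activity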 (primary screen)
System: Drosophila S2-derived reporter cells
Knock-down reagent: long dsRNA against Drosophila genes, about 150-250 ng dsRNA per well (siRNA assay); about 80-120 ng (miRNA assay)
Time to read-out: about 5 days (siRNA assay); about 4 days (miRNA assay)
Challenge: copper sulfate induction of reporters: 25 µM (siRNA assay); 200 mM stated (miRNA assay), 1-2 days before reading
Measured: 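Per-well ratio of Renilla over firefly light, expressed relative to that plate's average ratio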
Hit rule: 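a well was a first-pass pick when its plate-scaled ratio rose above 1.5 (siRNA assay) or 1.6 (miRNA assay), or dropped below 0.6; a gene counted only if two separate dsRNAs agreed on retest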

no.	gene knocked down	reagent	stable siRNA reporter change	miRNA reporter change	stable assay Renilla, run 1 (luminescence)	stable assay firefly, run 1 (luminescence)	call
1	Usp47	1			8408	5.02e5	inactive
2	Dpck	1			6843	3.98e5	inactive
3	Ugt303B3	1			8119	3.38e5	inactive
4	CG6484	1			10936	4.12e5	inactive
5	CG30087	1			9231	4.99e5	inactive
6	NPFR	1			7119	3.93e5	inactive
7	su(sable)	1	reporter ratio raised past the hit cutoff	reporter ratio raised past the hit cutoff	9525	2.37e5	active
8	CG1441	1			9266	4.16e5	inactive
9	CG4984 + CG4975	1			5459	2.94e5	inactive
10	CG4984 + CG4975	2			6999	3.21e5	inactive
11	CG33308	1			5091	3.19e5	inactive
12	Gdap1	1			6258	3.51e5	inactive
13	CG10859	1			6900	1.35e6	inactive
14	Cyp6g1	1			9875	4.06e5	inactive
15	NC2alpha	1		reporter ratio lowered past the hit cutoff	10573	4.61e5	inactive
16	loopin-1	1			8858	3.12e5	inactive
17	TTLL3A	1			9611	4.93e5	inactive
18	mey	1			9859	5.32e5	inactive
19	CG7271	1			4471	4.33e5	inactive
20	CG34348	1			5892	4.80e5	inactive
21	CG34348	2			6726	4.67e5	inactive
22	qtc	1			13244	4.57e5	inactive
23	qtc	2			7580	3.38e5	inactive
24	Sbds	1			8051	4.97e5	inactive
25	Arpc3B	1			2780	3.01e5	inactive
26	Prim1	1			7214	4.18e5	inactive
27	CG33477	1			4780	4.58e5	inactive
28	CG32052	1			5499	2.52e5	inactive
29	Bin1	1			7334	3.25e5	inactive
30	CG8187	1			8702	3.24e5	inactive
31	CG13978	1			5960	4.00e5	inactive
32	CG5704	1			9087	3.19e5	inactive
33	dx	1			4384	2.74e5	inactive
34	CG10301	1			6426	2.78e5	inactive
35	hb	1			7095	4.16e5	inactive

Look-ups from the list.
CG7271, call = inactive
For “stable assay firefly, run 1 (luminescence)”, Ugt303B3 reads 3.38e5
For “call”, CG1441 reads inactive
Under “stable assay firefly, run 1 (luminescence)”, CG34348 #1 reads 4.80e5

The list goes on:
no.	gene knocked down	reagent	stable siRNA reporter change	miRNA reporter change	stable assay Renilla, run 1 (luminescence)	stable assay firefly, run 1 (luminescence)	call
36	CG15459	1			3123	2.87e5	inactive
37	CG15459	2			9108	4.58e5	inactive
38	Surf1	1			6198	4.89e5	inactive
39	Surf1	2			7957	3.42e5	inactive
40	CG15127	1			5492	3.53e5	inactive
41	CG15127	2			5424	2.42e5	inactive
42	Caper	1			21445	1.14e6	inactive
43	Trim9	1			8661	4.07e5	inactive
44	dsf	1			7634	3.33e5	inactive
45	CG2278	1			6319	3.08e5	inactive
46	Ilp7	1			6852	4.92e5	inactive
47	CG4000	1			3055	3.53e5	inactive
48	CG4000	2			8916	4.49e5	inactive
49	CG5376	1			7564	3.97e5	inactive
50	SIFa	1			6803	5.04e5	inactive
51	CG15399	1			8907	6.02e5	inactive
52	PNPase	1			7720	6.14e5	inactive
53	CG2915	1			7718	3.27e5	inactive
54	Amph	1			8250	4.70e5	inactive
55	CG42397	1			4147	3.05e5	inactive
56	Gr66a	1			6735	4.10e5	inactive
57	EMC6	1			6306	2.84e5	inactive
58	Gmd	1			8643	1.41e5	inactive
59	Spn38F	1			6742	4.37e5	inactive
60	Met75Ca + Met75Cb	1			5047	4.83e5	inactive
61	Met75Ca + Met75Cb	2			7218	3.57e5	inactive
62	CG31269	1			7048	4.39e5	inactive
63	CR31846 (retired record)	1			9747	6.58e5	inactive
64	CG13856	1			6635	3.66e5	inactive
65	mRpL23	1			6398	4.26e5	inactive
66	ng1	1			5136	3.74e5	inactive
67	Vha16-3	1			7076	3.67e5	inactive
68	Cpr47Eb	1			7595	4.16e5	inactive
69	CG13670	1			6404	4.29e5	inactive
70	CG5612	1			6886	5.71e5	inactive
71	CG17475	1			8019	4.51e5	inactive
72	CG31267	1			7162	3.70e5	inactive
73	CG34112	1			6496	3.63e5	inactive
74	Ca-alpha1T	1			5794	3.17e5	inactive
75	Ca-alpha1T	2			4775	3.47e5	inactive
76	Ca-alpha1T	3			5731	3.50e5	inactive
77	Ca-alpha1T	4			5891	3.59e5	inactive
78	Ca-alpha1T	5			8424	4.69e5	inactive
79	CG32486	1			11326	5.15e5	inactive
80	CG32486	2			6370	5.31e5	inactive
81	blp	1			8322	5.05e5	inactive
82	Rab4 + CG42239	1			6308	4.21e5	inactive
83	CkIIalpha-i3	1			11403	4.87e5	inactive
